Reference: publication PMC6591397, “Functional Roles of Metabolic Intermediates in Regulating the Human Mitochondrial NAD(P)^+-Dependent Malic Enzyme” (Scientific Reports, 2019)

System: human m-NAD(P)-ME WT and the exosite mutants
Test: Size distribution analysis by analytical ultracentrifugation of WT and exosite mutants, protein only, with NAD+ or with ATP
Assay type: binding
Settings: for Kd,12(NAD)/Kd,12 / Kd,24(NAD)/Kd,24: with 0.4 mM NAD+ vs protein only; for Kd,12(ATP)/Kd,12 / Kd,24(ATP)/Kd,24: with 0.5 mM ATP vs protein only
Procedure: Size distribution of the monomer-dimer-tetramer equilibrium of the enzyme was monitored using a Beckman Optima XL-A analytical ultracentrifuge instrument. A protein sample (380 µl) and reference buffer (400 µl) were loaded into a well-assembled cell with a double-sector centerpiece. Experiments were performed with an An-50Ti rotor at 42,000 rpm and 20 °C for 3 to 4 hours. The scans for sedimentation velocity data were monitored by the UV absorbance at 280 nm with a 480 s interval time and a 0.002 cm step size in continuous distribution mode. Using the SEDFIT 9.4c software[31]–[34], the size distribution of the enzyme was analyzed with a resolution corresponding to N = 200 to cover the range of sedimentation coefficient (S) values from approximately 0.1 to 20, a confidence level of p = 0.95, and a best-fit average anhydrous frictional ratio (f/f0). The dissociation constants of monomer-dimer-tetramer self-association model were globally analyzed by using the SEDPHAT software.
All sedimentation velocity data were globally fitted by a monomer-dimer-tetramer equilibrium model by the software program of SEDPHAT[34]. The parameters protein partial specific volume, solvent density and viscosity were calculated with the […] software program.
Figure 4 Continuous sedimentation coefficient distribution of human m-NAD(P)-ME WT and the exosite mutants. The enzyme concentrations were fixed at 1.6, 4.7, and 14.2 μM in PBS. […] (a) ME2_WT; (b) ME2_H154V; (c) ME2_K156A; (d) ME2_G192A; (e) ME2_R194N; (f) ME2_R197E; (g) ME2_R197D.
Figure 5 Continuous sedimentation coefficient distribution of human m-NAD(P)-ME WT and the exosite mutants. The enzyme concentrations were fixed at 1.6, 4.7, and 14.2 μM in PBS. […] (a) ME2_N482G; (b) ME2_N482A; (c) ME2_R542V; (d) ME2_Y552F; (e) ME2_R556Q; (f) ME2_R556V.

Substance | Kd,12(NAD)/Kd,12 | Kd,12(ATP)/Kd,12 | Kd,24(ATP)/Kd,24 | Kd,24(NAD)/Kd,24
R542V: exosite mutant of human m-NAD(P)-ME | 187.0 | 2.0 | 22.4 | –
R556V: exosite mutant of human m-NAD(P)-ME | 4.6 | 15.6 | – | –
H154V: exosite mutant of human m-NAD(P)-ME | 2.3 | 15.3 | 8.7 | 0.3
R194N: exosite mutant of human m-NAD(P)-ME | 0.5 | 0.3 | 6.3 | 0.2
R197E: exosite mutant of human m-NAD(P)-ME | 3.3 | 3.3 | – | –
R197D: exosite mutant of human m-NAD(P)-ME | 0.1 | 0.9 | – | –
N482G: exosite mutant of human m-NAD(P)-ME | 7.6 | 2.0 | – | 0.2
N482A: exosite mutant of human m-NAD(P)-ME | 2.0 | – | – | –
K156A: exosite mutant of human m-NAD(P)-ME | 11.3 | 2.7 | 2.5 | 0.3
G192A: exosite mutant of human m-NAD(P)-ME | 0.7 | 2.3 | 1.3 | –
R556Q: exosite mutant of human m-NAD(P)-ME | 18.0 | 40.0 | – | –
WT: wild-type human mitochondrial NAD(P)+-dependent malic enzyme (ME2), recombinant from E. coli | 2.8 | 2.7 | 7.8 | 0.14
